These are yes or no findings as the source states them, for the method shown. For some assays here: Binding seen in cells or lysates may run through a third protein. Some results given as binding are weak or reduced against the parent protein; the word gives no strength. Sequences can lack the tags named with a protein. One block for each molecule: values may come before it.
Legend:
[1] = target: BHP fused to a half of YFP (BiFC construct) (Arabidopsis thaliana) (UniProt Q93Z30); test: split reporter; BiFC with halves of YFP (pSPYNE173, pSPYCE(M)) in Nicotiana benthamiana leaves, with the p19 silencing suppressor; confocal microscopy 4 days after infiltration
[2] = target: T1, GST-BHP (BLUE LIGHT-… H+-ATPASE PHOSPHORYLATION, Raf-like protein kinase) (Arabidopsis thaliana) (UniProt Q93Z30); test: pull-down; supernatants of E. coli expressing GST-BHP and of E. coli expressing the FLAG protein mixed, 0.5% Triton X-100 in TBS with 5 mM DTT, glutathione-Sepharose 4B, 30 min at 4 °C; immunoblot with anti-GST and anti-FLAG
T1 sequence: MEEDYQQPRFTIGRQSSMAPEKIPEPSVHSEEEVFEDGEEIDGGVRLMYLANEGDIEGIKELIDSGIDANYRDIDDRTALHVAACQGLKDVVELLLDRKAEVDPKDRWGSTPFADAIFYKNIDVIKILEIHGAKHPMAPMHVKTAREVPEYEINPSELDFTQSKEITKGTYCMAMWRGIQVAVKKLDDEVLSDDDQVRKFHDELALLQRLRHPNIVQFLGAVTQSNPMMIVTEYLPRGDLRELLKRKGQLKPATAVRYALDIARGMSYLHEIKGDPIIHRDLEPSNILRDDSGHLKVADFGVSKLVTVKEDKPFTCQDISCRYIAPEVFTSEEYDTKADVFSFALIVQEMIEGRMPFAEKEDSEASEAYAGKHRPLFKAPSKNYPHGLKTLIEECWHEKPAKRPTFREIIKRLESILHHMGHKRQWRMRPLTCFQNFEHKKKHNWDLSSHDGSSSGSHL

Chains of the proteins cited; added tags and fusions are not shown.
UniProt O48963: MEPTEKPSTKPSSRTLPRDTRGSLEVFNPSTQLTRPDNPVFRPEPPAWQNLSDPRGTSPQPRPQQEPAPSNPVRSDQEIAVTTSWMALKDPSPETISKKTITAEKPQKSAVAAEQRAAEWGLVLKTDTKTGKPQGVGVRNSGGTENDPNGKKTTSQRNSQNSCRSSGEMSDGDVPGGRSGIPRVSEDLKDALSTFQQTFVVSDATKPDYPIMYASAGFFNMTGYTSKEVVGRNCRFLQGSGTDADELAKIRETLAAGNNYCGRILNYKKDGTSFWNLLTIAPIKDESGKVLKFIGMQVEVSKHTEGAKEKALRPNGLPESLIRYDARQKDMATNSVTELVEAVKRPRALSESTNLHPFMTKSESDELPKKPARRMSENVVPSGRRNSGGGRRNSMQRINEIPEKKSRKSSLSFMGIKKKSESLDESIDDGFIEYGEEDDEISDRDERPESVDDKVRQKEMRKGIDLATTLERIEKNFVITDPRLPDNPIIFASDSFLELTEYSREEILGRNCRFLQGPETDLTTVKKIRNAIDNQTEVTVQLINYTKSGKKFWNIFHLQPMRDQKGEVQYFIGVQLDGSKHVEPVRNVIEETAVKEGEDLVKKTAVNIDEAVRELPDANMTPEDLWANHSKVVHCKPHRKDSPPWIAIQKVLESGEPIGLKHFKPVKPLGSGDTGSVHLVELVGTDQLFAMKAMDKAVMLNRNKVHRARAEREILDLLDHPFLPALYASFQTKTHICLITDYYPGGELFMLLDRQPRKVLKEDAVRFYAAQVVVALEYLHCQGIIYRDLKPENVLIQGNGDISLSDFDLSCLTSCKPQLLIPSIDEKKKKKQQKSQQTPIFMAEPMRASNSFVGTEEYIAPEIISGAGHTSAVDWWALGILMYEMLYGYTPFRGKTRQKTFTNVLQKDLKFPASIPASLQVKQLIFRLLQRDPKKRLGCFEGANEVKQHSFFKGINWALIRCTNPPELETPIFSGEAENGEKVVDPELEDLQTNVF
UniProt P93025: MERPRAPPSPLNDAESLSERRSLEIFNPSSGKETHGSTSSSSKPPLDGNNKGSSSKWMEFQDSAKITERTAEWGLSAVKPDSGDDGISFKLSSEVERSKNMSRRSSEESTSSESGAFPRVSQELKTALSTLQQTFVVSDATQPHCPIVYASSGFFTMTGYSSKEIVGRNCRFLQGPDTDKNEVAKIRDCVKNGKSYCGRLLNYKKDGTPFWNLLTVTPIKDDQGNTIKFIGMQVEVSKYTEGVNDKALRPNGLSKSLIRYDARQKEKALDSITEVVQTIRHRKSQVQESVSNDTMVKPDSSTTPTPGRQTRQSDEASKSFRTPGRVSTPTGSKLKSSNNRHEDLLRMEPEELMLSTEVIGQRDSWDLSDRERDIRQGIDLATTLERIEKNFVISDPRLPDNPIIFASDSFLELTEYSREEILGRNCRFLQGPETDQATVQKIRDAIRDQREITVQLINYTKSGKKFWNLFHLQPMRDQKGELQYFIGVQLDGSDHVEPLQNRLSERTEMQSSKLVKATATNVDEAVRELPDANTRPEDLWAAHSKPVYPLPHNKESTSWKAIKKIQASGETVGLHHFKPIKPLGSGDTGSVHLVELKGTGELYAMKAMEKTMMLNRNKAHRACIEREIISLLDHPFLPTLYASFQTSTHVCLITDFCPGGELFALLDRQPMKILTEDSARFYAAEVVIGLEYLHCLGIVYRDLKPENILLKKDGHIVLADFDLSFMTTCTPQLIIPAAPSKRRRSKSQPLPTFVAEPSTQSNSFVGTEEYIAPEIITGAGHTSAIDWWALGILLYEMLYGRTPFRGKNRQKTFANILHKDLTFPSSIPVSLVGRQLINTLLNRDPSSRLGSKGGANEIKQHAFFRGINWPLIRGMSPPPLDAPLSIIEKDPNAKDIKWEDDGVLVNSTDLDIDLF
UniProt P48484: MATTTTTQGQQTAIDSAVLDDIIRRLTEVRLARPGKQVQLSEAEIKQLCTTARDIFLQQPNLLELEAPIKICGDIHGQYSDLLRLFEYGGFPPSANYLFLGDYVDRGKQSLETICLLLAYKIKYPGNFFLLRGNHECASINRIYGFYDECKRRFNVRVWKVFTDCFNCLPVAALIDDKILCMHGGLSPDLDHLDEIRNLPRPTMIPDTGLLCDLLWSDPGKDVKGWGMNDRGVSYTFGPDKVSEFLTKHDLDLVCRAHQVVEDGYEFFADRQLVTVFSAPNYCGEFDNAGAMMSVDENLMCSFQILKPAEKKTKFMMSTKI

[3] = target: phot1, autophosphorylated after blue light, from etiolated seedlings (Arabidopsis thaliana (endogenous in etiolated seedlings)) (UniProt O48963); test: far-Western, overlay or dot blot; protein blotting with GST-14-3-3 (GF14ϕ) as a probe on extracts of etiolated seedlings resolved by SDS-PAGE; seedlings with or without blue light 100 μmol m^-2 s^-1 for 1 min, with DMSO or kinase inhibitors

binding [1]: binds
Molecule: phot2 fused to a half of YFP (BiFC construct) (from UniProt P93025 1-915)

binding [2]: binds
Molecule: FLAG-PP1 (TYPE ONE PROTEIN PHOSPHATASE 4, TOPP4) (from UniProt P48484 1-321)

binding [3]: binds
B1: GST-14-3-3 protein (GF14ϕ) (protein, UniProt P46077 1-267)
chain: MAAPPASSSAREEFVYLAKLAEQAERYEEMVEFMEKVAEAVDKDELTVEERNLLSVAYKNVIGARRASWRIISSIEQKEESRGNDDHVTTIRDYRSKIESELSKICDGILKLLDTRLVPASANGDSKVFYLKMKGDYHRYLAEFKTGQERKDAAEHTLTAYKAAQDIANAELAPTHPIRLGLALNFSVFYYEILNSPDRACNLAKQAFDEAIAELDTLGEESYKDSTLIMQLLRDNLTLWTSDMQDESPEEIKEAAAPKPAEEQKEI

binding [2]: binds
B2: FLAG-BLUS1 (BLUE LIGHT …1) (protein, UniProt O23304 1-487)
chain: MARNKLEFPLDAEAYEIICKIGVGVSASVYKAICIPMNSMVVAIKAIDLDQSRADFDSLRRETKTMSLLSHPNILNAYCSFTVDRCLWVVMPFMSCGSLHSIVSSSFPSGLPENCISVFLKETLNAISYLHDQGHLHRDIKAGNILVDSDGSVKLADFGVSASIYEPVTSSSGTTSSSLRLTDIAGTPYWMAPEVVHSHTGYGFKADIWSFGITALELAHGRPPLSHLPPLKSLLMKITKRFHFSDYEINTSGSSKKGNKKFSKAFREMVGLCLEQDPTKRPSAEKLLKHPFFKNCKGLDFVVKNVLHSLSNAEQMFMESQILIKSVGDDDEEEEEEDEEIVKNRRISGWNFREDDLQLSPVFPATESDSSESSPREEDQSKDKKEDDNVTITGYELGLGLSNEEAKNQEGEVVGFDKDLVLEKLKVLKKSLEHQRARVSIIIEALSGDKEEKSREEELLEMVEKLKIELETEKLKTLRADKDSVLG

binding [1]: binds
B3: BLUS1 fused to a half of YFP (BiFC construct) (protein, UniProt O23304 1-487)
chain: B2 chain

Reference: paper PMC5372365
